Reference: US20240033737A1, “DEVICES AND METHODS FOR CONTINUOUS DIELECTROPHORESIS CELL SORTING TO ISOLATE DIFFERENT POPULATIONS OF CELLS, AND APPLICATIONS THEREOF” (The Regents of the University of California, priority 2022, published 2024)

Test system: D54 cells
Experiment: Membrane capacitance and cell size after buffer incubation
Type: cell-based
Conditions: 6 hours

In the case of `C[C@@H](N)[C@H]1CC[C@H](C(=O)Nc2ccncc2)CC1` [ROCKi, Y27632], the membrane capacitance (1 μM ROCKi in DEP buffer, vs control cells in media for 0 hours) was “decreased membrane capacitance”, the cell size (5 μM ROCKi in DEP buffer) was “did not change” and the membrane capacitance (5 μM ROCKi in DEP buffer) was “did not change”.
